No constants are given. Whether binding was seen depends on the method and setting.
Target: human queuine tRNA-ribosyltransferase subunit 1 (QTRT1), catalytic subunit of tRNA guanine transglycosylase (human) (UniProt Q9BXR0)
Experiment: crystal structure; two QTRT1 molecules in the asymmetric unit, space group C2; crystals grown from the purified heterodimer in 100 mM Tris pH 7.8, 200 mM KBr, 200 mM KSCN, 3% PGA-LM, 5% PEG 4000, 20 °C; both purified

B1: human queuine tRNA-ribosyltransferase subunit 1 (QTRT1), catalytic subunit of tRNA guanine transglycosylase (enzyme, UniProt Q9BXR0 1-403)
chain: MAGAATQASLESAPRIMRLVAECSRSRARAGELWLPHGTVATPVFMPVGTQATMKGITTEQLDALGCRICLGNTYHLGLRPGPELIQKANGLHGFMNWPHNLLTDSGGFQMVSLVSLSEVTEEGVRFRSPYDGNETLLSPEKSVQIQNALGSDIIMQLDDVVSSTVTGPRVEEAMYRSIRWLDRCIAAHQRPDKQNLFAIIQGGLDADLRATCLEEMTKRDVPGFAIGGLSGGESKSQFWRMVALSTSRLPKDKPRYLMGVGYATDLVVCVALGCDMFDCVFPTRTARFGSALVPTGNLQLRKKVFEKDFGPIDPECTCPTCQKHSRAFLHALLHSDNTAALHHLTVHNIAYQLQLMSAVRTSIVEKRFPDFVRDFMGAMYGDPTLCPTWATDALASVGITLG
binding: no binding
